Measurements reported in patent publication US20140308281A1 (OSE IMMUNOTHERAPEUTICS, published 2014).
Residue numbers refer to the chain shown, from its start. No constants are given. Whether binding was seen depends on the method and setting. Some results given as binding are weak or reduced against the parent protein; the word gives no strength. For some of these results: Where a sequence is shown, tags or fusion partners need not be part of it.

Assays:
[1] = target: CD127 on baboon T cells (baboon); assay: flow cytometry on baboon T cells (PBMCs)
[2] = target: CD127 on baboon T cells (baboon); assay: flow cytometry on baboon PBMCs [A]
[3] = target: T1, Recombinant hCD127 (Sino Biologicals, reference 10975-H08H) (human) (UniProt P16871); assay: ELISA, recombinant hCD127 immobilized on plastic
T1 sequence (looked up): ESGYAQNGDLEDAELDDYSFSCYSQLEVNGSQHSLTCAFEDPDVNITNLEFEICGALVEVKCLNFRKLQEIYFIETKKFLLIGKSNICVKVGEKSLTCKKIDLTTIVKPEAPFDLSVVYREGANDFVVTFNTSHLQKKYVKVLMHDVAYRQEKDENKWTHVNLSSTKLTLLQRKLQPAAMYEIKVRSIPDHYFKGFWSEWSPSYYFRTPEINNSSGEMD

[4] = target: CD127 on baboon T cells (baboon); assay: flow cytometry on baboon PBMCs [B]
[5] = target: CD127 on Cynomolgus Macaque T cells (Cynomolgus Macaque) (UniProt Q38IC7); assay: flow cytometry on macaque PBMCs [B]
[6] = target: CD127 expressed by human T cells (human) (UniProt P16871); assay: flow cytometry on human PBMCs [B]
[7] = target: CD127 expressed by human T cells (human) (UniProt P16871); assay: hybridoma screening on human T cells
[8] = target: T1, Recombinant hCD127 (Sino Biologicals, reference 10975-H08H) (human); assay: ELISA, plate coated with recombinant human IL-7 receptor at 5 µg/ml, anti-rat Ig peroxidase detection
[9] = target: T2, Recombinant CD127 Fc Chimera (10975-H03H, Sino Biological) (human) (UniProt P16871); assay: hybridoma screening on recombinant CD127 Fc Chimera
T2 sequence (looked up): T1 sequence (looked up)

[10] = target: CD127 on Cynomolgus Macaque T cells (Cynomolgus Macaque) (UniProt Q38IC7); assay: flow cytometry on macaque T cells (PBMCs)

Measured: binding

B1: MD707-1 (antibody, V domains shown)
VH: AVHLVESGGGLVQPKESLKISCAASGFTFSNAAMFWVRQAPGKGLEWVARIRTKANNYATYYADSVKGRFTISRDDSKSMVYLQMDNVKTDDTAMYYCIVVVLTTTRDYFDYWGQGVMVTVSS
VL: DIVLTQAPLSVSVTPGESASISCRSSQSLLTVKGITSLYWFLQKPGKSPQLLMYRMSNLASGVPDRFRGSGSETDFTLKISKVETEDVGVYYCAQFLEYPHTFGAGTKLELKR
notes: also called 7MD07-1; rat anti-human CD127 Mab MD707-1
binds: [1] | [2]

B2: MD707-3 (antibody, V domains shown)
VH: B1 VH with F35Y, D64E
VL: B1 VL with M53I
notes: also called 7MD07-3; rat anti-human CD127 Mab MD707-3
binds: [1] | [2]

B3: MD707-13 (antibody, V domains shown)
VH: QLKESGPGLVQPSQTLSLTCTVSGLSLPNNNIAWIRQSPGKGLEWMGVIWSNGDTDYNSAIRSRLSISRDSSKSQVFLRMNSLQSEDTAMYFCAREGMTTLDYWGQGVVVTVSS
VL: EIVLTQSPTTMAASPGEKVTITCRASSSVSYMHWFQQKSGSSPKPWIYDSSDLASGVPDRFSGSGSGTSYSLTISSMEAEDAATYYCLQRSSYPRTFGGGTKLELKR
notes: also called 7MD07-13; rat anti-human CD127 Mab MD707-13
binds: [3] | [4] | [5] | [1] | [6] | [7] | [8] | [9] | [10]
